Data source: PubChem BioAssay AID686943 (Drosophila RNAi Screening Center, 2013)
In all, the deposit lists about 23,000 reagents; shown is a random part of those with a known target gene and a result. 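Extra replicates exist only for a retested subset of genes; insulin dose and duration not given; both raised and lowered dpERK matter.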 Reagents against one gene are numbered here. Not all columns of the deposit are shown. Not given: the amount of reagent, the time to read-out.

Assay: 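Fly genes whose loss alters ERK activation after insulin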 (primary screen)
Cell system: Drosophila S2R+ haemocyte-like cells expressing YFP-tagged ERK (Rolled)
Reagents: long dsRNA against Drosophila genes
Challenge: insulin stimulation versus unstimulated cells; dose and duration not given
Measured: 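Per-plate z-scores of phospho-ERK immunostaining normalised to YFP-tagged ERK, measured with and without insulin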
Direction: replicate 1, z-score of dpERK with insulin and replicate 2, z-score of dpERK with insulin: higher = more active ERK per ERK-YFP after insulin

Silencing of Drsl2 came out at: replicate 1, z-score of dpERK with insulin -0.9; replicate 2, z-score of dpERK with insulin -0.88. Depletion of CG3611 gave: replicate 1, z-score of dpERK with insulin -1.64; replicate 2, z-score of dpERK with insulin -0.42. Knock-down of ppk8 came out at: replicate 1, z-score of dpERK with insulin 1.29; replicate 2, z-score of dpERK with insulin 0.34. After knock-down of eIF3d1, the record shows replicate 1, z-score of dpERK with insulin -2.37; replicate 2, z-score of dpERK with insulin 0. Against CG30096, the entry reads replicate 1, z-score of dpERK with insulin 0; replicate 2, z-score of dpERK with insulin -0.24. Knock-down of Pk34A resulted in: replicate 1, z-score of dpERK with insulin -0.26; replicate 2, z-score of dpERK with insulin 0.

Depletion of RIOK1 gave: replicate 1, z-score of dpERK with insulin 0.08; replicate 2, z-score of dpERK with insulin 0.

Part of the list above, set out differently:
{"target":"ppk8","dsRNA no.":1,"replicate 1, z-score of dpERK with insulin":1.29,"replicate 2, z-score of dpERK with insulin":0.34}
{"target":"eIF3d1","dsRNA no.":1,"replicate 1, z-score of dpERK with insulin":-2.37,"replicate 2, z-score of dpERK with insulin":0}

The listing continues.
CG4730 showed replicate 1, z-score of dpERK with insulin -0.16; replicate 2, z-score of dpERK with insulin -0.14. Against lncRNA:CR43334 #1, the values are replicate 1, z-score of dpERK with insulin 0.6; replicate 2, z-score of dpERK with insulin 0.82. lncRNA:CR43334 #2 scored replicate 1, z-score of dpERK with insulin 0.81; replicate 2, z-score of dpERK with insulin 0.79. Silencing of CG17786 gave: replicate 1, z-score of dpERK with insulin -0.1; replicate 2, z-score of dpERK with insulin 0. Knock-down of GlcAT-I resulted in: replicate 1, z-score of dpERK with insulin 0.33; replicate 2, z-score of dpERK with insulin -0.4.
